Data from US12010995B2, “Oxadiazoline compounds or salts thereof, agrohorticultural fungicides containing the compounds, and methods of using the same” (NIHON NOHYAKU CO., LTD., priority 2018, dated 2024).
Some entries share one result that the patent states for a list of compounds. Some compounds share one range, which may span the group rather than tell each member.

tested on: soybean rust (Phakopsora pachyrhizi); assay: Fungicidal efficacy test for soybean rust (foliage spray, preventive); type: in vivo; details: treatment concentration 50 ppm; foliage spray on soybean (Enrei, 2-leaf stage), 10 ml per pot; assessed about 10 days after inoculation

Structure (SMILES)	control value (assessment criteria grade 0-10) against soybean rust
Cn1ncc2c(=O)n(Cc3ccc(C4=NOC(C(F)(F)F)N4)cc3)cnc21 (centres unmarked) [3-15]	8 (Control value 80-89%)
COC(=O)c1ccnn1Cc1ccc(C2=NOC(C(F)(F)F)N2)cc1 (centres unmarked) [3-23]	8 (Control value 80-89%)
C#CCNC(=O)c1ccc(C2=NOC(C(F)(F)F)N2)cc1 (centres unmarked) [2-14]	8 (Control value 80-89%)
O=C1CCCN1Cc1ccc(C2=NOC(C(F)(F)F)N2)cc1 (centres unmarked) [3-45]	8 (Control value 80-89%)
CN(Cc1ccc(C2=NOC(C(F)(F)F)N2)cc1)C(=O)C1CC1 (centres unmarked) [1-39]	8 (Control value 80-89%)
CCS(=O)(=O)Cc1ccc(C2=NOC(C(F)(F)F)N2)cc1 (centres unmarked) [3-42]	8 (Control value 80-89%)
CCc1cncn(Cc2ccc(C3=NOC(C(F)(F)F)N3)cc2)c1=O (centres unmarked) [3-8]	8 (Control value 80-89%)
CN(Cc1ccc(C2=NOC(C(F)(F)F)N2)cc1)C(=O)c1c(F)cccc1F (centres unmarked) [1-54]	8 (Control value 80-89%)
CC1(C)CC(=O)N(Cc2ccc(C3=NOC(C(F)(F)F)N3)cc2)O1 (centres unmarked) [3-44]	8 (Control value 80-89%)
CC(C)C(=O)N(C)Cc1ccc(C2=NOC(C(F)(F)F)N2)cc1 (centres unmarked) [1-47]	8 (Control value 80-89%)
CCCC(=O)Nc1ccc(C2=NOC(C(F)(F)F)N2)cc1 (racemic) [5-3]	8 (Control value 80-89%)
CSCc1ccc(C2=NOC(C(F)(F)F)N2)cc1 (centres unmarked) [3-38]	8 (Control value 80-89%)
O=C(NC1CC1)c1ccc(C2=NOC(C(F)(F)F)N2)cc1 (centres unmarked) [2-10]	8 (Control value 80-89%)
CN(Cc1ccc(C2=NOC(C(F)(F)F)N2Cc2ccccc2)cc1)S(C)(=O)=O (centres unmarked) [1-14]	8 (Control value 80-89%)
O=c1ccc(Br)cn1Cc1ccc(C2=NOC(C(F)(F)F)N2)cc1 (centres unmarked) [3-36]	8 (Control value 80-89%)
CN(Cc1ccc(C2=NOC(C(F)(F)F)N2)cc1)C(=S)Nc1ccccc1 (centres unmarked) [1-64]	8 (Control value 80-89%)
CN(Cc1ccc(C2=NOC(C(F)(F)F)N2)cc1)C(=O)c1ccccc1C(F)(F)F (centres unmarked) [1-53]	8 (Control value 80-89%)
CN(C)S(=O)(=O)N(C)Cc1ccc(C2=NOC(C(F)(F)F)N2)cc1 (centres unmarked) [1-19]	8 (Control value 80-89%)
CN(Cc1ccc(C2=NOC(C(F)(F)F)N2)cc1)C(=O)c1ccc(F)cc1F (centres unmarked) [1-56]	8 (Control value 80-89%)
CC1(C)CON(Cc2ccc(C3=NOC(C(F)(F)F)N3)cc2)C1=O (centres unmarked) [3-43]	8 (Control value 80-89%)
